Data as given in PubChem BioAssay AID1259308 (NCATS, 2017)
Aim: 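Candidate targets for better recombinant protein yield in mammalian cells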 (primary screen). Cells: human HEK293 embryonic kidney cells stably expressing firefly luciferase (HEK-CMV-Luc2-Hygro). Knock-down reagent: single siRNA against human genes, 0.8 pmol siRNA per well. Timing: 72 h. Measured: 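Reporter luminescence and viable-cell signal on separate replicate plates, given as percent of non-targeting control and median/MAD z-scores, plus per-cell luciferase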. Reading the numbers: total luciferase, z-score: higher = more reporter protein produced. Rule for the call: 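Active when the median/MAD z-score for overall luciferase is greater than 3; a gene was taken forward for validation with new siRNAs if at least two of its three siRNAs passed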. Calls: active = raised luciferase; inactive = no rise.
In all, the deposit lists about 59,000 reagents; below is an unselected part. Of all reagents, about 1,510 (2.6%) were called active. 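Calls use total luciferase alone and ignore viability, so some active siRNAs may act by altering cell number.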 Entries without a mark were called inactive. The numbers tell different reagents against one gene apart. Further read-outs or replicates are left out here.

LINC02687 #1 gave total luciferase, z-score 0.212.
For LINC02687 #2, the values are total luciferase, z-score -0.42.
LINC02687 #3 showed total luciferase, z-score -1.49.
Against NMBR #1 the deposit lists total luciferase, z-score 0.479.
NMBR #2 scored total luciferase, z-score 0.488.
Depletion of NMBR #3 gave: total luciferase, z-score -0.0356.
RPL3L #1 gave total luciferase, z-score 0.253.
Depletion of RPL3L #2 came out at: total luciferase, z-score -0.763.
For RPL3L #3 the deposit lists total luciferase, z-score 1.21.
Depletion of RASSF4 #1 came out at: total luciferase, z-score 0.186.
RASSF4 #2 showed total luciferase, z-score 1.05.
After knock-down of RASSF4 #3, the screen gave total luciferase, z-score -0.369.
Against KLB #1, the entry reads total luciferase, z-score 2.69.
After knock-down of KLB #2, the screen gave total luciferase, z-score 0.17.
Silencing of KLB #3 resulted in: total luciferase, z-score 0.187.
COL1A1 #1 showed total luciferase, z-score 0.743.
Knock-down of COL1A1 #2 resulted in: total luciferase, z-score 0.133.
Depletion of COL1A1 #3 gave: total luciferase, z-score 1.1.

Quoted from the entries so far for reference:
RASSF4 #3 — total luciferase, z-score = -0.369
KLB #1 — total luciferase, z-score = 2.69
KLB #2 — total luciferase, z-score = 0.17

Next reagents follow.
NUP62CL #1 showed total luciferase, z-score 0.675.
Knock-down of NUP62CL #2 gave: total luciferase, z-score -1.
For NUP62CL #3, the entry reads total luciferase, z-score -0.352.
Knock-down of TFPT #1 came out at: total luciferase, z-score 0.682.
Knock-down of TFPT #2 gave: total luciferase, z-score 2.23.
With knock-down of TFPT #3, the record shows total luciferase, z-score -0.575.
For RNF115 #1 the deposit lists total luciferase, z-score -1.6.
Knock-down of RNF115 #2 gave: total luciferase, z-score 1.71.
RNF115 #3 scored total luciferase, z-score -1.87.
Depletion of KCNJ16 #1 came out at: total luciferase, z-score 1.36.
KCNJ16 #2 gave total luciferase, z-score -0.0479.
Against KCNJ16 #3, the values are total luciferase, z-score -0.454.
For LAMTOR1 #1, the entry reads total luciferase, z-score -0.575.
Knock-down of LAMTOR1 #2 resulted in: total luciferase, z-score 1.97.
With knock-down of LAMTOR1 #3, the record shows total luciferase, z-score 0.149.
